Measured values reported in US12024584B2, “Methods and compositions for polyurethane dispersions using caprolactam-derived solvents” (AdvanSix Resins & Chemicals LLC, priority 2017, dated 2024).
Some entries share one result that the patent states for a list of compounds.

Experiment: Persoz hardness of pigmented and complete PUDs
Type: physicochemical
Details: pigmented
Excerpt: Tests were first performed to determine the coalescing agent level for pigmented and complete PUD formulations in order to achieve the optimum film formation. Complete paints were mixed with 0.7 wt. %, 1.5 wt. %, 3.0 wt. % and 5.0 wt. % of coalescing agents and applied on tin plated steel at a wet film thickness of around 250 μm, where the weight percentage was based on the pure polyurethane dispersion resins. […] Based on the observations, 3 wt. % dosage of coalescing agent was selected. Complete PUD formulations with pigments, fillers and other additives were prepared as per Table 5, and used to test and determine the coalescing properties of the caprolactam-derived solvents and other known coalescing agents.
Persoz hardness measurements were performed on pigmented paints that were applied on tin plated steel using a doctor blade applicator at a dry film thickness (DFT) around 50 μm according to the ISO 1522 standard. […] For instance, the 28 day hardness for N-ethyl caprolactam (NE CPL) was approximately 104.6±0.5, while the 28 day hardness for NMP was approximately 108.8±2.4, and the 28 day hardness for ester alcohol and N-methyl caprolactam (NM CPL) were approximately 124.8±1 and 126.0±1, respectively, while the 28 day hardness for NBP was approximately 135.8±5.

Row | SMILES | hardness of paints or coatings (approximate range)
1 | CCCCN1CCCC1=O [NBP, N-butyl pyrrolidone, reference compound] | 105 to 140 s
2 | CN1CCCC1=O [NMP, N-methyl pyrrolidone, reference compound] | 105 to 140 s
